The nature of the test: qHTS Assay for Lipid Storage Modulators in Drosophila S3 Cells.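 On cell number change: cells counted by Cell Tracker Red CMTPX staining in the red channel.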 The note with it: BODIPY lipid droplet fluorescence, 18-24 h; for cell number change: measured here: cell count max response, cells fed with added oleic acid. The procedure, abridged: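 Laser-scanning cytometry quantifies lipid droplet accumulation (500–530 nm total intensity; droplet/cell object ratio) in oleic acid-fed (400 uM added) Drosophila S3 cells treated with a concentration series. 20 uM Triacsin C defined 100% inhibition.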
Background: In qHTS, concentration-response curves come from the screen itself.

[1] abbreviates: measured here: cell number channel AC50, cells fed with added oleic acid.
The mark [2] stands for this setting: measured here: lipid fluorescence (Fed channel) AC50, cells fed with added oleic acid.

Some of the results follow. Shown are side measurements of this screen, not its main read-out; they come without a call. Compounds called inactive in the main read-out are mostly missing here. Words in brackets tell the shape of the fitted curve; partial curves, single points and poor fits give uncertain potencies.

On to `O=C(NCCc1ccccc1)c1ccc(-c2ccccc2C(F)(F)F)o1`, for which the cell number change came out at 40.4%. Further, under setting [1], the half-maximal activity concentration (AC50) (commonly the concentration giving half of the maximal activity seen) was 14.6 µM [rising, partial curve]. Besides, under setting [2], the AC50 is 14.6 µM [rising, partial curve].
`CC(=O)Nc1ccn(Cc2c(F)cccc2Cl)n1`: the cell number change was -26.9%. For the same molecule, the AC50 under setting [2] is 25.9 µM [falling, single point].
As for `Cc1ccc(C)c(S(=O)(=O)N2CCN(C(=O)/C=C/c3ccco3)CC2)c1`, the cell number change was -30.3%. For the same molecule, under setting [1], the AC50 is 0.0517 µM [falling, full curve, poor fit].
For `CCC1(CC)NC(=O)N(CC(=O)OC(C)C(=O)Nc2ccc(Cl)cn2)C1=O` (stereo unspecified), the cell number change was found to be 42.2%.
Regarding `Cc1ccc(-n2nnnc2SCC(=O)N2CCCCC2)cc1`, the cell number change came to 71.2%. The AC50 under setting [1] is 16.4 µM [rising, single point]. The concentration at half-maximal activity (AC50) under setting [2] was 0.00461 µM [falling, full curve, poor fit].
Regarding `COc1ccc(/C(C)=N/NC(=O)c2ccncc2)cc1[N+](=O)[O-]`, the cell number change is 10.9%. Under setting [2], the concentration at half-maximal activity (AC50) is 29.1 µM [rising, single point].
As to `CCSc1cc(N2CCCC2)nc(-c2ccccc2Cl)n1`, the cell number change worked out at 0.731%.
On to `CN(C)CCCNC(=O)CCc1nc2ccccc2c(=O)[nH]1`, for which the cell number change was 119%. In addition, the AC50 under setting [1] is 6.51 µM [falling, single point].
Take `CC1=CC=CN2C1=NC(=O)CC2(C)C(=O)N(CC(=O)NC1CCCC1)Cc1ccccc1` (stereo unspecified): the cell number change was 13.1%.
Regarding `O=C(c1cccs1)N(Cc1cc2ccccc2[nH]c1=O)CC1CCCO1` (stereo unspecified), the cell number change was found to be 0.952%. Further, the AC50 under setting [1] is 0.291 µM [rising, full curve].
`COc1cccc(OCc2cc(C(=O)N(Cc3ccccc3)CC3CC3)no2)c1`: the cell number change was -23.9%. Besides, the AC50 under setting [2] is 18.4 µM [rising, single point].
Regarding `CC1(C)Cc2c(sc3nc(SCC(=O)NCc4ccco4)n(-c4ccccc4)c(=O)c23)CS1`, the cell number change is -4.66%. Moreover, under setting [2], the AC50 was 20.6 µM [rising, partial curve].
On to `COc1ccc(N2CCN(C(=O)[C@H](C)NC(=O)c3ccccc3Cl)CC2)cc1`, for which the cell number change stood at 18.1%. The AC50 under setting [2] was 0.164 µM [falling, full curve, poor fit].
For the molecule `Cc1cc(C)c(S(=O)(=O)NCCn2c(C)cc3ccccc32)c(C)c1`, the cell number change came out at 14.4%. Moreover, the AC50 under setting [2] is 6.51 µM [falling, single point].
As to `O=C(Nc1nc(-c2ccccc2)cs1)c1ccc2c(c1)S(=O)(=O)c1ccccc1C2=O`, the cell number change was -23.6%.
As to `Cc1ccc(-c2nnn(CC(=O)Nc3cccc4cccnc34)n2)o1`, the cell number change stood at 38.1%. Further, the AC50 under setting [1] was 8.2 µM [rising, partial curve, poor fit]. Also, under setting [2], the AC50 was 6.51 µM [rising, single point].
On to `Clc1ccccc1/C=C/c1nc(-c2cccnc2)no1`, for which the cell number change came out at 14.7%. Moreover, under setting [2], the concentration at half-maximal activity (AC50) is 0.116 µM [rising, full curve, poor fit].
With `NC(=O)NC(CC(=O)NCCCc1ccccc1)c1ccccc1Cl` (stereo unspecified), the cell number change is -6.33%. The AC50 under setting [1] is 0.291 µM [falling, full curve, poor fit]. In addition, the AC50 under setting [2] is 0.291 µM [falling, full curve].
For the molecule `CCCNC(=O)c1ccc(Cn2cc(-c3ccc(OC)cc3)nc2C(C)N)cc1` (stereo unspecified), the cell number change was -11.5%. For the same molecule, the AC50 under setting [2] is 0.13 µM [falling, full curve, poor fit].
Regarding `COc1ccc(Br)cc1/C=C/C(=O)Nc1ccc2ccccc2c1`, the cell number change was -8.46%. In addition, the AC50 under setting [2] was 29.1 µM [falling, single point].
On to `C#CCOCCOCCOCCNc1nc(N2CCN(C(=O)CCCCCCCCCCNC(=O)Cn3cc(CCCCCN)nn3)CC2)nc(N2CCN(C(=O)CCCCCCCCCCNC(=O)[C@H](CO)n3cc(CCCSC)nn3)CC2)n1`, for which the cell number change was 9.17%. Under setting [1], the AC50 is 2.06 µM [falling, single point]. Under setting [2], the concentration at half-maximal activity (AC50) was 7.31 µM [falling, partial curve, poor fit].
For the molecule `Cc1ccc(/C=C/C(=O)NC(=S)Nc2ccccc2C(=O)NC2CCCCC2)cc1`, the cell number change is -35.6%. For the same molecule, the AC50 under setting [1] was 18.4 µM [falling, single point]. Besides, the AC50 under setting [2] was 16.4 µM [falling, partial curve].
Turning to `COc1cccc(C(=O)C2CCCN(C(=O)c3cccc(C#CC(C)(C)O)c3)C2)c1` (stereo unspecified), the cell number change was -50.9%. Besides, the AC50 under setting [1] is 29.1 µM [falling, single point]. The AC50 under setting [2] is 29.1 µM [falling, single point].
For `COC(=O)c1ccc(Sc2ccc(C)cc2)c(N)c1`, the AC50 under setting [2] is 0.0259 µM [falling, full curve, poor fit].
For the molecule `COc1ccc(CCNC(=O)CN(C)S(=O)(=O)c2ccc3c(c2)CCC(=O)N3)cc1OC`, the cell number change turned out to be 2.03%.
For the molecule `c1ccc2c(SCc3cn4cccnc4n3)ncnc2c1`, the cell number change worked out at 35.1%. Under setting [1], the AC50 is 25.9 µM [rising, single point]. In addition, the AC50 under setting [2] was 23.1 µM [rising, single point].
Turning to `CCOC(=O)c1c(-c2ccc(C)o2)csc1NC(=O)CSc1nnnn1-c1ccccc1`, the cell number change is -47.9%. Moreover, under setting [1], the AC50 is 29.1 µM [falling, single point]. Also, the AC50 under setting [2] is 18.4 µM [falling, single point].
For the molecule `CCN(CC)S(=O)(=O)c1ccc(Cl)c(C(=O)NCc2ccccc2Cl)c1`, the cell number change is -12.1%.
In the case of `CN(C)S(=O)(=O)n1cc(/C=C(\NC(=O)c2ccccc2Cl)C(=O)NCCN2CCOCC2)c2ccccc21`, the AC50 under setting [2] is 4.11 µM [rising, partial curve].
In the case of `O=C1S/C(=C\c2ccccn2)C(=O)N1Cc1ccccc1F`, the cell number change was -8.89%. Also, under setting [2], the AC50 is 20.6 µM [rising, single point].
On to `Cc1ccccc1NC(=O)CSc1n[nH]c(-c2ccco2)n1`, for which the cell number change came out at 19.5%.
Turning to `CC1CCN(c2ccc3c(c2)S(=O)(=O)c2cccc(C(=O)NCc4cccc(F)c4)c2C3=O)CC1`, the cell number change is -40.1%. Besides, the AC50 under setting [1] was 25.9 µM [falling, single point]. Further, the AC50 under setting [2] is 16.4 µM [falling, single point].
With `COCCCNC(=O)/C(C#N)=C1\N=C(NC(=O)c2cccs2)c2ccccc21`, the AC50 under setting [2] is 0.184 µM [rising, full curve, poor fit].
Regarding `COc1ccccc1CN(C)C(=O)c1ccccc1SCC(=O)N1CCCC1`, the cell number change turned out to be 24%. In addition, the AC50 under setting [2] is 20.6 µM [rising, partial curve, poor fit].
Take `O=S(=O)(NNc1ccc(F)cc1F)c1cccc(Cl)c1`: the cell number change amounted to 0.451%.
As to `COc1cccc(NC(=O)C(Sc2nnc3ccccn23)c2ccccc2)c1` (stereo unspecified), the AC50 under setting [1] is 0.231 µM [rising, full curve, poor fit] and the AC50 under setting [2] was 2.06 µM [rising, partial curve].
Consider `CN(N)C(=S)Nc1ccc(F)cc1`, for which the cell number change is -16.9%. Besides, the AC50 under setting [2] is 0.82 µM [falling, single point].
Turning to `O=C(c1ccccc1)N(Cc1cccs1)C1CCS(=O)(=O)C1` (stereo unspecified), the cell number change stood at 11.5%.
With `COc1ccccc1NC(=O)CCC(=O)c1ccc(-c2ccccc2)cc1`, the AC50 under setting [1] was 6.51 µM [rising, single point] and the AC50 under setting [2] was 6.51 µM [rising, partial curve].
For the molecule `COc1ccccc1C(=O)NNC(=O)c1ccc(NC(=O)C(C)C)cc1`, under setting [2], the AC50 is 6.51 µM [falling, single point].
For `Cc1ccc(OCCN2CCCCCC2)c(C)c1`, the cell number change was -10.1%. Besides, under setting [2], the AC50 is 18.4 µM [falling, single point].
Take `CCOC(=O)c1c(C)c(C(=O)N2CCN(C(=O)c3ccco3)CC2)c(C)n1C`: the cell number change was -6.93%.
For the molecule `CCC(=O)Nc1cccc(NC(=O)CN2CCN(c3ccccc3OC)CC2)c1`, the cell number change amounted to 4.85%.
With `CCN(CC(=O)NCc1cccs1)C(=O)c1ccc(S(=O)(=O)Nc2cccc(C)c2C)cc1`, the cell number change is -22.3%. For the same molecule, the AC50 under setting [2] is 35.5 µM [falling, single point].
On to `O=C(Nc1ccc(NC(=O)c2cccs2)cc1)c1cccnc1`, for which the cell number change is -9.77%. Also, the AC50 under setting [1] is 2.06 µM [rising, partial curve].
Take `O=C(OCC(=O)N1CCCc2ccccc21)c1cnc(Cl)c(Cl)c1`: the cell number change was -14.3%.
Take `Cc1ccsc1C1CC(=O)OC2=C1C(=O)CC(C)(C)C2` (stereo unspecified): the cell number change was -9.38%. For the same molecule, the AC50 under setting [2] is 0.00411 µM [falling, full curve, poor fit].
For `CCOc1ccc(C(=O)NCC(=O)OCC(=O)Nc2ccccc2OCC)cc1`, the cell number change was -32.1%. In addition, the AC50 under setting [2] was 0.13 µM [falling, full curve, poor fit].
With `Cc1c(C(=O)N2CCc3ccccc3C2)sc2nc(-c3ccccc3)cn12`, the cell number change is -216%.
For the molecule `CN1CCc2c(sc3c2c(=O)n(-c2ccccc2)c2nnc(SCc4ccccc4)n32)C1`, the cell number change was 9.14%.
On the same count and under the same terms, under `CCCc1cc(=O)oc2c(CN3CCN(C)CC3)c(O)ccc12` stands 23.4%; under `COC(=O)NCC(C)OC(=O)Nc1cccc(Cl)c1` (stereo unspecified), -21.3%.
As for `Cc1ccccc1NS(=O)(=O)c1ccc(C(=O)N2CCCC2)cc1`, the cell number change was -51.9%. Besides, the half-maximal activity concentration (AC50) under setting [1] was 25.9 µM [falling, partial curve].
Consider `O=C(COC(=O)c1ccc(Cl)nc1)Nc1ccc(N2CCOCC2)cc1`, for which, under setting [2], the AC50 was 18.4 µM [rising, single point].
As to `CCOc1ncccc1C(=O)Nc1ccc(S(=O)(=O)NC2=NCCCCC2)cc1`, the cell number change was determined as 114%. Further, under setting [1], the AC50 was 1.84 µM [rising, full curve].
For the molecule `Cc1cc2nc(C)c3c(n2n1)CCC3`, the concentration at half-maximal activity (AC50) under setting [1] was 6.51 µM [rising, single point].
As for `CCC(=O)Nc1ccc(NC(=O)c2cccc3ccccc23)cc1`, the cell number change came to 22.9%.
As for `CN(C)CCOC(=O)C12CC3(C)CC(C)(CC(C)(C3)C1)C2`, the cell number change is -4.34%. Under setting [2], the AC50 is 0.731 µM [falling, single point].
Regarding `CCOc1cc(C(=O)N2CCN(c3ccccn3)CC2)cc(OCC)c1OCC`, the cell number change was -50%. Further, the AC50 under setting [1] was 16.4 µM [falling, single point].
For the molecule `O=C(O)CCCC(=O)Nc1ccn(-c2ccccc2)n1`, the cell number change turned out to be 1.23%. In addition, under setting [2], the AC50 was 6.51 µM [falling, single point].
Consider `Cc1ccc(CNc2nc(N)c([N+](=O)[O-])c(Nc3cccc(F)c3)n2)cc1`, for which the AC50 under setting [1] is 3.26 µM [rising, single point].
For the molecule `Nc1nnc(SCC(=O)NNC(=O)c2ccc([N+](=O)[O-])cc2)s1`, the cell number change is -31.4%. In addition, the AC50 under setting [1] is 0.82 µM [falling, full curve]. Besides, the AC50 under setting [2] was 0.92 µM [falling, full curve, poor fit].

Values taken from PubChem BioAssay AID2685 (National Center for Advancing Translational Sciences (NCATS), 2010).
